Reference: patent US20170107185A1, “SUBSTITUTED [1,2,4]TRIAZOLE AND IMIDAZOLE COMPOUNDS AS FUNGICIDES” (BASF SE, priority 2014, published 2017)
Some results were stated once for a whole list of compounds, not compound by compound.

How the values were obtained:
Pyricularia oryzae = assay type: cell-based; settings: 31 ppm, 405 nm, 7 days after inoculation; compound-free control 100%
Botrytis cinerea = test: G1 Preventative fungicidal control of Botrytis cinerea on leaves of green pepper (Botrci P1); assay type: in vivo; settings: 150 ppm, sprayed one day before inoculation, assessed after 5 days; untreated plants 80% infected
Alternaria solani = settings: 150 ppm, sprayed one day before inoculation, assessed after 5 days; untreated plants 80% infected
Septoria tritici = test: M3 Activity against leaf blotch on wheat caused by Septoria tritici (Septtr); assay type: cell-based; settings: 31 ppm, 405 nm, 7 days after inoculation; compound-free control 100%
Phakopsora pachyrhizi = test: G3 Curative control of soy bean rust on soy beans (Phakpa K2); assay type: in vivo, Phakopsora pachyrhizi on soy bean; settings: 150 ppm, curative spray after inoculation, assessed after 14 days; untreated plants 100% infected

OC(Cn1cncn1)(c1ccc(-c2ccccc2)cc1Cl)C1CC1 (stereo not shown) [Compound I-1]
growth (relative growth in % of the pathogen) (Pyricularia oryzae): ≤ 2%

OC(Cn1cncn1)(c1ccc(-c2ccccc2)cc1C(F)(F)F)C1CC1 (stereo not shown) [Compound I-2]
infection (% diseased leaf area) (Botrytis cinerea): ≤ 7%
infection (% diseased leaf area) (Alternaria solani): ≤ 15%

CC(O)(Cn1cncn1)c1ccc(-c2ccccc2)cc1C(F)(F)F (stereo not shown) [Compound I-3]
infection (% diseased leaf area) (Botrytis cinerea): ≤ 7%
infection (% diseased leaf area) (Alternaria solani): ≤ 15%

CC(C)C(O)(Cn1cncn1)c1ccc(-c2ccccc2)cc1C(F)(F)F (stereo not shown) [Compound I-4]
infection (% diseased leaf area) (Botrytis cinerea): ≤ 7%
infection (% diseased leaf area) (Alternaria solani): ≤ 15%

CC(C)(C)C(O)(Cn1cncn1)c1ccc(-c2ccccc2)cc1C(F)(F)F (stereo not shown) [Compound I-5]
infection (% diseased leaf area) (Botrytis cinerea): ≤ 7%
infection (% diseased leaf area) (Alternaria solani): ≤ 15%

CC#CC(O)(Cn1cncn1)c1ccc(-c2ccccc2)cc1C(F)(F)F (stereo not shown) [Compound I-6]
infection (% diseased leaf area) (Alternaria solani): ≤ 15%

CC(C)(C)C(O)(Cn1cncn1)c1ccc(-c2ccccc2)cc1Cl (stereo not shown) [Compound I-7]
growth (relative growth in % of the pathogen) (Septoria tritici): ≤ 4%
infection (% diseased leaf area) (Phakopsora pachyrhizi): ≤ 3%
growth (relative growth in % of the pathogen) (Pyricularia oryzae): ≤ 2%
infection (% diseased leaf area) (Botrytis cinerea): ≤ 7%
infection (% diseased leaf area) (Alternaria solani): ≤ 15%

CC(O)(Cn1cncn1)c1ccc(-c2ccccc2)cc1Cl (stereo not shown) [Compound I-8]
growth (relative growth in % of the pathogen) (Septoria tritici): ≤ 4%
infection (% diseased leaf area) (Phakopsora pachyrhizi): ≤ 3%
growth (relative growth in % of the pathogen) (Pyricularia oryzae): ≤ 2%
infection (% diseased leaf area) (Botrytis cinerea): ≤ 7%
infection (% diseased leaf area) (Alternaria solani): ≤ 15%

C=CCCC(O)(Cn1cncn1)c1ccc(-c2ccccc2)cc1Cl (stereo not shown) [Compound I-9]
growth (relative growth in % of the pathogen) (Septoria tritici): ≤ 4%
infection (% diseased leaf area) (Phakopsora pachyrhizi): ≤ 3%
growth (relative growth in % of the pathogen) (Pyricularia oryzae): ≤ 2%
infection (% diseased leaf area) (Botrytis cinerea): ≤ 7%
infection (% diseased leaf area) (Alternaria solani): ≤ 15%

CC#CC(O)(Cn1cncn1)c1ccc(-c2ccccc2)cc1Cl (stereo not shown) [Compound I-10]
growth (relative growth in % of the pathogen) (Septoria tritici): ≤ 4%
infection (% diseased leaf area) (Phakopsora pachyrhizi): ≤ 3%
growth (relative growth in % of the pathogen) (Pyricularia oryzae): ≤ 2%
infection (% diseased leaf area) (Botrytis cinerea): ≤ 7%
infection (% diseased leaf area) (Alternaria solani): ≤ 15%

C#CC(O)(Cn1cncn1)c1ccc(-c2ccccc2)cc1Cl (stereo not shown) [Compound I-11]
infection (% diseased leaf area) (Phakopsora pachyrhizi): ≤ 3%
infection (% diseased leaf area) (Botrytis cinerea): ≤ 7%
infection (% diseased leaf area) (Alternaria solani): ≤ 15%

OC(C#CI)(Cn1cncn1)c1ccc(-c2ccccc2)cc1Cl (stereo not shown) [Compound I-12]
infection (% diseased leaf area) (Botrytis cinerea): ≤ 7%
infection (% diseased leaf area) (Alternaria solani): ≤ 15%

CCC(O)(Cn1cncn1)c1ccc(-c2ccccc2)cc1Cl (stereo not shown) [Compound I-13]
growth (relative growth in % of the pathogen) (Septoria tritici): ≤ 4%
growth (relative growth in % of the pathogen) (Pyricularia oryzae): ≤ 2%
infection (% diseased leaf area) (Botrytis cinerea): ≤ 7%
infection (% diseased leaf area) (Alternaria solani): ≤ 15%

CC(F)(F)C(O)(Cn1cncn1)c1ccc(-c2ccccc2)cc1Cl (stereo not shown) [Compound I-14]
growth (relative growth in % of the pathogen) (Septoria tritici): ≤ 4%
growth (relative growth in % of the pathogen) (Pyricularia oryzae): ≤ 2%
infection (% diseased leaf area) (Botrytis cinerea): ≤ 7%
infection (% diseased leaf area) (Alternaria solani): ≤ 15%
